PMC8901929
No constants are given. Whether binding was seen depends on the method and setting. Binding seen in cells or lysates may run through a third protein. Some entries that bind do so weakly or less than the wild type.

By UniProt entry, the sequences of proteins in these tests, tags left out.
UniProt Q96RU2: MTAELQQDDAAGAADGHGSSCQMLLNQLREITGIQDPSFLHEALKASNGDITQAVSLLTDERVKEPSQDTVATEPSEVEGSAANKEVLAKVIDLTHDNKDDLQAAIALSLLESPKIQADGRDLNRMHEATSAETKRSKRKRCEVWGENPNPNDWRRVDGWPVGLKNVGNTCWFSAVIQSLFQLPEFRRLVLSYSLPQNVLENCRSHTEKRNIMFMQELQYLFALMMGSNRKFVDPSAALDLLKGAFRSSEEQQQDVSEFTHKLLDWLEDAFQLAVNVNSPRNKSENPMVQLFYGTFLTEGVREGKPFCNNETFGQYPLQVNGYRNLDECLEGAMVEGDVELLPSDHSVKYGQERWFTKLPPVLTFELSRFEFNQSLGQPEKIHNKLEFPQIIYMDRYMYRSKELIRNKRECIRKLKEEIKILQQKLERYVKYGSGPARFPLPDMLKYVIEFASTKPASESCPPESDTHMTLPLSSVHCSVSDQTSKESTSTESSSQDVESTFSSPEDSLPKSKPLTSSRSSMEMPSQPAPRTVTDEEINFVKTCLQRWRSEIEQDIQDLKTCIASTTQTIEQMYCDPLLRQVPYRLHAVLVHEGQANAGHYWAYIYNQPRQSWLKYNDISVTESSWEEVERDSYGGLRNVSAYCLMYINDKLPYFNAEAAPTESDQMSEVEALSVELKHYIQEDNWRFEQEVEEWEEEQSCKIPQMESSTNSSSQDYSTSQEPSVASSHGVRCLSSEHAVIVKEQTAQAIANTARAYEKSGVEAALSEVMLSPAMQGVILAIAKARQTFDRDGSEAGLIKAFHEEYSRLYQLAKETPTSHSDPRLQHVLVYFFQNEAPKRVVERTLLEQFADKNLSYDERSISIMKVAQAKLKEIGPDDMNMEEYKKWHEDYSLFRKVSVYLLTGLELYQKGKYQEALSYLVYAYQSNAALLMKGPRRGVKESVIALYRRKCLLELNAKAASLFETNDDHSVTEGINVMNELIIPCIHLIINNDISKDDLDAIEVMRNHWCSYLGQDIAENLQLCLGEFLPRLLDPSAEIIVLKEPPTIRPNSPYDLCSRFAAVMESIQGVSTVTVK
UniProt Q13535: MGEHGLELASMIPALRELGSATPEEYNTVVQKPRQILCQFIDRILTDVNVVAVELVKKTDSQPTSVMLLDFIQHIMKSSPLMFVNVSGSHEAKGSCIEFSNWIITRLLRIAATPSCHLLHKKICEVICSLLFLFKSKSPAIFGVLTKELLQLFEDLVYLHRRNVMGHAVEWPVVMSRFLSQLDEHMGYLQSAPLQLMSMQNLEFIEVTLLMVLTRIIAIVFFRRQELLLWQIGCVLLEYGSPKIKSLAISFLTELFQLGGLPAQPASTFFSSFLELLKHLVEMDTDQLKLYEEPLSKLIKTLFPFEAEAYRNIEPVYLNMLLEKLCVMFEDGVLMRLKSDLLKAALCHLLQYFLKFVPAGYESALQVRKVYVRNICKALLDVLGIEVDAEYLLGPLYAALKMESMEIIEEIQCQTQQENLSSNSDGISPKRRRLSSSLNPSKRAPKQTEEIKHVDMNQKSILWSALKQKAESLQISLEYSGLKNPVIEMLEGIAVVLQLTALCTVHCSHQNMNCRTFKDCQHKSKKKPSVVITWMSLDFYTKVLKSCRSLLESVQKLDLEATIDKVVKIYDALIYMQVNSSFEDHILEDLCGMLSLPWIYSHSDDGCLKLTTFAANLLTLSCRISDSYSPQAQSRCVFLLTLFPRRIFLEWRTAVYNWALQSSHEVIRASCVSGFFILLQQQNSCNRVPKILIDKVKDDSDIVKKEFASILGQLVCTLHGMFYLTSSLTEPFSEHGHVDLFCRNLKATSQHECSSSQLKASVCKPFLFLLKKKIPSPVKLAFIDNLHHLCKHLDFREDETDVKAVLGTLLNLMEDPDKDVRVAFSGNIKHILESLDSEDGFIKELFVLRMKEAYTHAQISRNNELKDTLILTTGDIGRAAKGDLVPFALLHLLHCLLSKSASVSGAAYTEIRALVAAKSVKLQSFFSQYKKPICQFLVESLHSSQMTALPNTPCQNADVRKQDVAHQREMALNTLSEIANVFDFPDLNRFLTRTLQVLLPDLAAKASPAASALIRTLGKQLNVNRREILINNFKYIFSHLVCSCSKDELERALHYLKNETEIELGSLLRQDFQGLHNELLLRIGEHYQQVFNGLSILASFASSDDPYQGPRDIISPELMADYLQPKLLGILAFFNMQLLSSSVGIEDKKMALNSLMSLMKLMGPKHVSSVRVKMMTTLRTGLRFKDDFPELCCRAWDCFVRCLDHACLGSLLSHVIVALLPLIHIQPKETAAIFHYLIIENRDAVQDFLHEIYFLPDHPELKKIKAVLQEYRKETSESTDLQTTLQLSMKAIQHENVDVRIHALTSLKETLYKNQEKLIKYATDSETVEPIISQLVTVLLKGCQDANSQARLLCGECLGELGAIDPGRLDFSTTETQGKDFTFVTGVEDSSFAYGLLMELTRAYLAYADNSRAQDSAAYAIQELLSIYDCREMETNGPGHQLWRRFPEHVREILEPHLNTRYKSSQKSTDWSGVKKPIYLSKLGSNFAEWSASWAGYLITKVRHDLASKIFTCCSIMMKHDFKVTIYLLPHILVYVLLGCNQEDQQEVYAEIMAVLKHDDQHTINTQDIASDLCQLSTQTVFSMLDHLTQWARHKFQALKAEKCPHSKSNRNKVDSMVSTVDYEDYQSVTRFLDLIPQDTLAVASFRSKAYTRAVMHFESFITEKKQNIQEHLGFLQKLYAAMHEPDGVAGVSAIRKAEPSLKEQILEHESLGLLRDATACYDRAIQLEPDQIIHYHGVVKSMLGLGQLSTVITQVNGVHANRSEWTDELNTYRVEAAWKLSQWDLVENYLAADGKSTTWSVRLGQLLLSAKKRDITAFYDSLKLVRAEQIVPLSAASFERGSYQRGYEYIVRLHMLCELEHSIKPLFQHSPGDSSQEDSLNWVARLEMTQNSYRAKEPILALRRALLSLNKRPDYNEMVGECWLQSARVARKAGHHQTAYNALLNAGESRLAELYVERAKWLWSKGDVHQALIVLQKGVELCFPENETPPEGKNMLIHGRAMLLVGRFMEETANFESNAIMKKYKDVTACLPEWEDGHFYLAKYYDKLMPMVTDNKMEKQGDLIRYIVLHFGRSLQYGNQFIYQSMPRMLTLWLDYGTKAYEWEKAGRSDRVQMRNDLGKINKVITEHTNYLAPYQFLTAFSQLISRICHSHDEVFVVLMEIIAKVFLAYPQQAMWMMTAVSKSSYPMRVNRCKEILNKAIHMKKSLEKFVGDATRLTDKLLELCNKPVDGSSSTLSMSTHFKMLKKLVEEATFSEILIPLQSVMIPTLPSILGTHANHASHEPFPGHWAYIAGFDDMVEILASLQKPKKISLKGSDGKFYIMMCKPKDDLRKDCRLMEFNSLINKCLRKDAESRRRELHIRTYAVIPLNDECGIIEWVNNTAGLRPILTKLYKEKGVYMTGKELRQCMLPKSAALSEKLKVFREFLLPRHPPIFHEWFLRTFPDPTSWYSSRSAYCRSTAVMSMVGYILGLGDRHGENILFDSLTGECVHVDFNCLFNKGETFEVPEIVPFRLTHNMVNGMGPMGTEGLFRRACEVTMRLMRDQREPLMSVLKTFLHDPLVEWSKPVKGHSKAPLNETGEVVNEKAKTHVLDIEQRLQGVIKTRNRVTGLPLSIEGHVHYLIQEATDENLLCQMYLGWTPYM

Biological target: USP28 (human (endogenous in A431)) (UniProt Q96RU2)
Assay: co-IP; endogenous proteins from A431 cells treated with DMF or 5 µM CPPD for 6 h; RIPA lysate (sonicated), 500 µg lysate, 1 µg antibody (phospho-ATM ser1981, phospho-ATR ser428 or USP28), Protein A/G magnetic beads; rabbit IgG as control; immunoblot

binding: binds
Substance: phospho-ATR (ser428) (from UniProt Q13535 1-2644) (enzyme)
